# Reference: the supplement of paper PMC6411743
# ± gives the standard deviation of the averaged measurements. The list shows a part of the results, in another mix than the full data.
# Legend:
# Test in all cases: NP40-soluble protein abundance relative to vehicle (solubility fold change) (ratio); higher = more soluble protein in presence of AMP-PNP
# ACOX3 = molecular target: T1, ACOX3 (UniProt O15254)
# T1 sequence (whole entry): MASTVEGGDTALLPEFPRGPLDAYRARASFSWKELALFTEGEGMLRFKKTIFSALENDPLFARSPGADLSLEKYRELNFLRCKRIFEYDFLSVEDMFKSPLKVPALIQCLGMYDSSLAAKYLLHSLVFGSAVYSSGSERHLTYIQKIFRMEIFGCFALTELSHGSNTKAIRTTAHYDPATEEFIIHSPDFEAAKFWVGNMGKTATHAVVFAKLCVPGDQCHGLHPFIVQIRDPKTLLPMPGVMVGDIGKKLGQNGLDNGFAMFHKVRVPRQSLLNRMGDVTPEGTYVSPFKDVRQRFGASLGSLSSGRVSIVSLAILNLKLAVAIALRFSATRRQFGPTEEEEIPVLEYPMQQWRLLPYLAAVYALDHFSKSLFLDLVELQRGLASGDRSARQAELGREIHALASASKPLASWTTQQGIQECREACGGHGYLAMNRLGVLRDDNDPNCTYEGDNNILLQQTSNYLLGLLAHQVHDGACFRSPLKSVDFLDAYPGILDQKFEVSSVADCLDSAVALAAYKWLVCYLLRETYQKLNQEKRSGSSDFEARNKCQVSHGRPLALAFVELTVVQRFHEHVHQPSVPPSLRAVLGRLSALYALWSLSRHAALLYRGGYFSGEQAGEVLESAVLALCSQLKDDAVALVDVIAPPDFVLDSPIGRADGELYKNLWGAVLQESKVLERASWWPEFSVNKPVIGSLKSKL
# Summary of the method: (§1)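 Eight concentrations, 0.1 to 10 mM, were tested on Jurkat crude lysate for 10 min at room temperature and then 3 min at 37 °C, in three independent experiments. The lysate was solubilised with 0.8% NP40 and benzonase, ultracentrifuged, and the supernatant TMT-labelled for LC-MS/MS. Each value is the fold change against the detergent-processed vehicle in its own replicate, from vsn-normalised intensities.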
# ADAM10 = molecular target: T2, ADAM10 (UniProt O14672)
# T2 sequence (whole entry): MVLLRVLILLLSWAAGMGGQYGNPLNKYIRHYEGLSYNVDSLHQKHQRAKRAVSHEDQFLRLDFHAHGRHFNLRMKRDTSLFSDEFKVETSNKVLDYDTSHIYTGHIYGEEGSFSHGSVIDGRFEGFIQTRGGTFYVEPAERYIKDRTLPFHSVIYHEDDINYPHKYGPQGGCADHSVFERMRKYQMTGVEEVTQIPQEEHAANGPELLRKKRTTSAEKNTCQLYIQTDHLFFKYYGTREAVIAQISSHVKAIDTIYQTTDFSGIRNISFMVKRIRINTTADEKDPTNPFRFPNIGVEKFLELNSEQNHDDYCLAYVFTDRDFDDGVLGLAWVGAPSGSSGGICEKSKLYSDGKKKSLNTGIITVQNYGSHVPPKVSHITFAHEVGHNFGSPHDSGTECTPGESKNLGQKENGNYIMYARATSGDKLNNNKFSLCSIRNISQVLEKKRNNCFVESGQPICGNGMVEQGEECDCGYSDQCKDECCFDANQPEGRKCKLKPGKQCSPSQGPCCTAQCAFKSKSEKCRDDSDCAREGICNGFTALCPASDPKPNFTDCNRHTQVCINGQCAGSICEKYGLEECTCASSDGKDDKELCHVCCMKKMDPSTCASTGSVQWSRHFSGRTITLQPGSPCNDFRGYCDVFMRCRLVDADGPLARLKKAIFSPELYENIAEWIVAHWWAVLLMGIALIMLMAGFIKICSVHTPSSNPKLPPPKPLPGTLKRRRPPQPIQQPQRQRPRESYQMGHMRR
# Summary of the method: as §1
# NVL = molecular target: T3, NVL (UniProt O15381)
# T3 sequence (whole entry): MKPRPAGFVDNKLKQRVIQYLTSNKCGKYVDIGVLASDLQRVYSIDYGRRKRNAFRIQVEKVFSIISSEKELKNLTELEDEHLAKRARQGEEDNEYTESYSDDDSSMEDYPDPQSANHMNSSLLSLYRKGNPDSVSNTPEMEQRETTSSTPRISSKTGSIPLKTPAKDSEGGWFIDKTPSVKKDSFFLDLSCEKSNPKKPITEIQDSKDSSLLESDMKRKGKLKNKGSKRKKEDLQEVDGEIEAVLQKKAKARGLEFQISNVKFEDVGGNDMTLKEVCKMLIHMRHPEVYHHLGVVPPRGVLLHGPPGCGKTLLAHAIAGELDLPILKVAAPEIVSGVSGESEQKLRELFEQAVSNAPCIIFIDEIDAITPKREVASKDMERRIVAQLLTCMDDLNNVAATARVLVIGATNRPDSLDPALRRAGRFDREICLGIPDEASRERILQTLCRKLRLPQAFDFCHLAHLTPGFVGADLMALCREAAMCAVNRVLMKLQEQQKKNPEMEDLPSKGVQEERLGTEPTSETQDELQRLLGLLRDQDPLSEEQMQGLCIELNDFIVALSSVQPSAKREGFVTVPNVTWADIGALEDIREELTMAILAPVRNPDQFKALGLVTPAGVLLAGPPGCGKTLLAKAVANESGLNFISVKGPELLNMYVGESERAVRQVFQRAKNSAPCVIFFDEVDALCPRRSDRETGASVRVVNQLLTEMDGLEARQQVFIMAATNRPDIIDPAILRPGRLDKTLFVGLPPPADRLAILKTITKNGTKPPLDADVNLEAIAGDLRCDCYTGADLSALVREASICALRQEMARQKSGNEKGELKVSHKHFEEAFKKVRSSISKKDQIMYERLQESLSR
# Summary of the method: as §1
# RFXAP = molecular target: T4, RFXAP (UniProt O00287)
# T4 sequence (whole entry): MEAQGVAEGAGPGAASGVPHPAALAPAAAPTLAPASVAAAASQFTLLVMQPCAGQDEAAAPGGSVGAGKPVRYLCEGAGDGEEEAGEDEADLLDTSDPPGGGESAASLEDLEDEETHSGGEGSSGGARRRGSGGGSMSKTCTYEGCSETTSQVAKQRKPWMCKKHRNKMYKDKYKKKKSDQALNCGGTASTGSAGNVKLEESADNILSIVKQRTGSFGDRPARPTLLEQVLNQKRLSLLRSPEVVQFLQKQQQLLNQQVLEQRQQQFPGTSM
# Summary of the method: as §1
# SNAP23 = molecular target: T5, SNAP23 (UniProt O00161); settings: concentration: 1mM
# T5 sequence (whole entry): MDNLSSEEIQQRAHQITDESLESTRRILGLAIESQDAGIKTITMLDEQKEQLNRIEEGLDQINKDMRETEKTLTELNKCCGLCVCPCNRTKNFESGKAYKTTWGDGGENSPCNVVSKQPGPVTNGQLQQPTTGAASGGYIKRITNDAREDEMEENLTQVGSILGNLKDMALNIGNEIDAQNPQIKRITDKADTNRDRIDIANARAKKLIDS
# Summary of the method: as §1
compound,measurement,setting,value
Nc1ncnc2c1ncn2[C@@H]1O[C@H](COP(=O)(O)OP(=O)(O)NP(=O)(O)O)[C@@H](O)[C@H]1O [adenylyl imidodiphosphate],NP40-soluble protein abundance,ACOX3; concentration: 1mM,0.977 ± 0.053
same,NP40-soluble protein abundance,ACOX3; concentration: 2mM,0.928 ± 0.076
same,NP40-soluble protein abundance,ACOX3; concentration: 4mM,0.967 ± 0.031
same,NP40-soluble protein abundance,ACOX3; concentration: 6mM,0.957 ± 0.057
same,NP40-soluble protein abundance,ACOX3; concentration: 8mM,0.972 ± 0.07
same,NP40-soluble protein abundance,ACOX3; concentration: 10mM,0.918 ± 0.089
same,NP40-soluble protein abundance,ADAM10; concentration: 1mM,0.981 ± 0.031
same,NP40-soluble protein abundance,ADAM10; concentration: 2mM,1.04 ± 0.059
same,NP40-soluble protein abundance,ADAM10; concentration: 4mM,0.9979 ± 0.0066
same,NP40-soluble protein abundance,ADAM10; concentration: 6mM,1.02 ± 0.027
same,NP40-soluble protein abundance,ADAM10; concentration: 8mM,0.998 ± 0.037
same,NP40-soluble protein abundance,ADAM10; concentration: 10mM,1.02 ± 0.0085
same,NP40-soluble protein abundance,NVL; concentration: 1mM,1.07 ± 0.033
same,NP40-soluble protein abundance,NVL; concentration: 2mM,1.12 ± 0.038
same,NP40-soluble protein abundance,NVL; concentration: 4mM,1.16 ± 0.038
same,NP40-soluble protein abundance,NVL; concentration: 6mM,1.13 ± 0.052
same,NP40-soluble protein abundance,NVL; concentration: 8mM,1.11 ± 0.038
same,NP40-soluble protein abundance,NVL; concentration: 10mM,1.14 ± 0.042
same,NP40-soluble protein abundance,RFXAP; concentration: 1mM,1 ± 0.031
same,NP40-soluble protein abundance,RFXAP; concentration: 2mM,1.04 ± 0.047
same,NP40-soluble protein abundance,RFXAP; concentration: 4mM,1.01 ± 0.031
same,NP40-soluble protein abundance,RFXAP; concentration: 6mM,1.04 ± 0.035
same,NP40-soluble protein abundance,RFXAP; concentration: 8mM,1.01 ± 0.041
same,NP40-soluble protein abundance,RFXAP; concentration: 10mM,1.04 ± 0.044
same,NP40-soluble protein abundance,SNAP23,1 ± 0.035

# Copied from the entries so far (2 entries):
compound,measurement,setting,value
Nc1ncnc2c1ncn2[C@@H]1O[C@H](COP(=O)(O)OP(=O)(O)NP(=O)(O)O)[C@@H](O)[C@H]1O [adenylyl imidodiphosphate],NP40-soluble protein abundance,ADAM10; concentration: 6mM,1.02 ± 0.027
same,NP40-soluble protein abundance,ADAM10; concentration: 8mM,0.998 ± 0.037
